From PMC5741622, “Structure of a Wbl protein and implications for NO sensing by M. tuberculosis” (Nature Communications, 2017) come the findings set out here.

Results are given in words; binding and its absence hold for the method and conditions named. Tags and fused reporters may be left off the sequences shown.

This test concerns the target M. tuberculosis WhiB1 overproduced in Mycobacterium smegmatis with a His-tag and a TEV protease clea (Mycobacterium tuberculosis) (UniProt P9WF43). Nature of the test: native MS; both purified.

B1: M. tuberculosis WhiB1 overproduced in Mycobacterium smegmatis with a His-tag and a TEV protease clea (protein, UniProt P9WF43 1-84)
chain: MDWRHKAVCRDEDPELFFPVGNSGPALAQIADAKLVCNRCPVTTECLSWALNTGQDSGVWGGMSEDERRALKRRNARTKARTGV
modifications: [4Fe-4S] cluster coordinated by cysteine residues 9, 37, 40 and 46
B1: the binding result is reported as “no binding (tested: 20 μM)”.
